Data: US8048440B2, “Thermoplastic fluoropolymer-coated medical devices” (Gore Enterprise Holdings, Inc., priority 2002, dated 2011)
At least one structure is not confirmed: it was looked up by name or label, or the drawing left a doubt.

Test: drug release study of balloon expanded stent coated with TFE/PMVE containing dexamethasone
Format: physicochemical
Settings: about 400 micrograms dexamethasone per stent

C[C@@H]1C[C@H]2[C@@H]3CCC4=CC(=O)C=C[C@]4(C)[C@@]3(F)[C@@H](O)C[C@]2(C)[C@@]1(O)C(=O)CO [dexamethasone]
drug release from coated stent: released in a controlled fashion
